Measurements from US20020177543A1, “Method for determining the activity of uncoupling proteins (UCPs) by monitoring NAD(P)H consumption” (priority 2000, published 2002).
At least one compound was matched to its structure with a doubt left.

Tests used:
Control mitochondria [1] = assay: Respiration rate by monitoring NADH fluorescence (NADH consumption), Control mitochondria; type: biochemical, Saccharomyces cerevisiae; conditions: CONTROL mitochondria of S. cerevisiae, GDP 3 mM, palmitate 48 μM, FCCP 10 μM (uncoupled respiration), basal 141
Control mitochondria [2] = assay: Respiration rate from oxygen consumption (oxygen electrode), Control mitochondria; type: biochemical, Saccharomyces cerevisiae; conditions: CONTROL mitochondria of S. cerevisiae; GDP 3 mM, palmitate 48 μM, FCCP 10 μM (uncoupled respiration); basal 144

Question: Which results are given for `CCCCCCCCCCCCCCCC(=O)O` [Palmitate]?
Answer: NADH consumption (Control mitochondria [1]): 148 nmoles of NADH consumed per minute and per mg of protein; NADH consumption (Control mitochondria [1]; listed as palmitate): 148 nmoles of NADH consumed per mi; Oxygen consumption (Control mitochondria [2]): 157 nmoles of oxygen consumed per minute and per mg of protein
